Measurements reported in PubChem BioAssay AID602196 (INSERM, 2012).
Test: 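Modifiers of cisplatin sensitivity in A549 cells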. System: human A549 lung cancer cells. Knock-down reagent: siRNA pair against human genes. Timing: 48 h transfection before cisplatin; time from cisplatin to read-out not stated. Challenge: cisplatin at a dose killing half of control-siRNA cells; exact dose and duration not given. Measurement: 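Cisplatin cell death as a shift from the 50% death seen with control siRNA; siRNAs toxic or growth-blocking alone scored 0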. Scale: two-siRNA summed score (-2 to +2): higher = both siRNAs protect from cisplatin killing; -2 means both sensitise. Rule for the call: 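siRNAs harmful alone (LDH or WST-1) get 0; others get +1 for less and -1 for more cisplatin killing; genes are active when the two siRNAs give the same sign, summing to ±2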. Calls: active = both siRNAs shift cisplatin killing the same way; inactive = no consistent shift, or siRNA harmful alone.
Here is an unselected part of about 23,000 reagents tested. 455 of all reagents (2%) count as active. 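Active includes both protection and sensitisation; some change values fall well beyond the stated -50 to +50 range.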 Reagents against one gene are numbered here. Further read-outs or replicates are left out here. Not given: the amount of reagent.

LOC401859 showed two-siRNA summed score (-2 to +2) = 1; inactive.
With knock-down of PHF5A (GeneID 84844), the record shows two-siRNA summed score (-2 to +2) = 0; inactive.
For P2RY8 (GeneID 286530) the deposit lists two-siRNA summed score (-2 to +2) = -1; inactive.
Against C11orf65 (GeneID 160140), the entry reads two-siRNA summed score (-2 to +2) = 0; inactive.
Against GGA2 (GeneID 23062), the entry reads two-siRNA summed score (-2 to +2) = 0; inactive.
Against NEK10 (GeneID 152110) the deposit lists two-siRNA summed score (-2 to +2) = 0; inactive.
For LOC203604, the entry reads two-siRNA summed score (-2 to +2) = 1; inactive.
After knock-down of BUD23 (GeneID 114049), the record shows two-siRNA summed score (-2 to +2) = 0; inactive.
ANKRD10 (GeneID 55608) scored two-siRNA summed score (-2 to +2) = 1; inactive.
After knock-down of LOC401237, the screen gave two-siRNA summed score (-2 to +2) = 0; inactive.
Knock-down of PRB1 (GeneID 5542) came out at: two-siRNA summed score (-2 to +2) = 0; inactive.
Silencing of TSLIG3B (GeneID 283742) gave: two-siRNA summed score (-2 to +2) = 0; inactive.
With knock-down of LOC440847 the results were two-siRNA summed score (-2 to +2) = 0; inactive.
EFNA2 (GeneID 1943) scored two-siRNA summed score (-2 to +2) = 0; inactive.
For TRAF7 (GeneID 84231) the deposit lists two-siRNA summed score (-2 to +2) = -1; inactive.
After knock-down of LOC392459, the screen gave two-siRNA summed score (-2 to +2) = 1; inactive.
For ISL1 (GeneID 3670), the values are two-siRNA summed score (-2 to +2) = 0; inactive.
Depletion of COMMD4P1 (GeneID 440292) resulted in: two-siRNA summed score (-2 to +2) = 0; inactive.
TCTN3 (GeneID 26123) #1 gave two-siRNA summed score (-2 to +2) = 0; inactive.
Depletion of TCTN3 (GeneID 26123) #2 resulted in: two-siRNA summed score (-2 to +2) = 0; inactive.
USP39 (GeneID 10713) scored two-siRNA summed score (-2 to +2) = 0; inactive.
Against TMPO (GeneID 7112) the deposit lists two-siRNA summed score (-2 to +2) = 0; inactive.
With knock-down of ZNF583 (GeneID 147949), the record shows two-siRNA summed score (-2 to +2) = 0; inactive.
For HHATL (GeneID 57467) the deposit lists two-siRNA summed score (-2 to +2) = 0; inactive.
SYTL3 (GeneID 94120) showed two-siRNA summed score (-2 to +2) = 0; inactive.
After knock-down of TRIM62 (GeneID 55223), the screen gave two-siRNA summed score (-2 to +2) = 0; inactive.
ADAMTSL3 (GeneID 57188) scored two-siRNA summed score (-2 to +2) = 1; inactive.
With knock-down of ZFP69B (GeneID 65243) the results were two-siRNA summed score (-2 to +2) = 0; inactive.
MEOX2 (GeneID 4223) scored two-siRNA summed score (-2 to +2) = 0; inactive.
Silencing of CACNA2D2 (GeneID 9254) came out at: two-siRNA summed score (-2 to +2) = 0; inactive.
Knock-down of GPR61 (GeneID 83873) gave: two-siRNA summed score (-2 to +2) = 0; inactive.

4 consecutive entries from above:
HHATL (GeneID 57467) → two-siRNA summed score (-2 to +2): 0; outcome: inactive
SYTL3 (GeneID 94120) → two-siRNA summed score (-2 to +2): 0; outcome: inactive
TRIM62 (GeneID 55223) → two-siRNA summed score (-2 to +2): 0; outcome: inactive
ADAMTSL3 (GeneID 57188) → two-siRNA summed score (-2 to +2): 1; outcome: inactive
